# Laboratory results taken from publication PMC6107167.
# These are yes or no findings as the source states them, for the method shown.
# T1: NHLRC2 fragment containing the Trx-like and β-propeller domains (aa 1-575) (human) (UniProt Q8NBF2)
# T1 sequence: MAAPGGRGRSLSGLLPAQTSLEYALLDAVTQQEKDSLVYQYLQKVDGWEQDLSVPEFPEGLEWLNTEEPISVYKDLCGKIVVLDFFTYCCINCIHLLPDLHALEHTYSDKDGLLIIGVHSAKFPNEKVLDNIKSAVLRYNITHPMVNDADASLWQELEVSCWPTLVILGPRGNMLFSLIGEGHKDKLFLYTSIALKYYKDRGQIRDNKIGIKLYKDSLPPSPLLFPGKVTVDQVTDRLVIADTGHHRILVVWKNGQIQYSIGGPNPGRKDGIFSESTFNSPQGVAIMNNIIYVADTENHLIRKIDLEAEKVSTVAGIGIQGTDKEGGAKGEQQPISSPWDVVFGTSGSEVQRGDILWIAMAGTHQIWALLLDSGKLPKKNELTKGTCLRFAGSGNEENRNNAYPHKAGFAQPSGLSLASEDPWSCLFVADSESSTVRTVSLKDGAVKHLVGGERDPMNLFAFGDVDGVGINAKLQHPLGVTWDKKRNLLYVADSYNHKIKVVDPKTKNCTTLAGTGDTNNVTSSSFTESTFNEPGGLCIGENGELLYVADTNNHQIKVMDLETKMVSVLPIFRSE
# Key:
# [1] = target: T1, NHLRC2 fragment containing the Trx-like and β-propeller domains (aa 1-575) (human); test: SEC-MALS; full-length NHLRC2 cleaved with endoproteinase GluC overnight at room temperature, the mixture of the two fragments loaded; Superdex 200 Increase 10/300; 20 mM BisTris pH 6.5, 150 mM NaCl, 2 mM DTT; both purified
# [2] = target: NHLRC2 (NHL repeat-containing protein 2), full-length (human) (UniProt Q8NBF2); test: SAXS; full-length NHLRC2 at 1.25, 2.5, 5 mg/ml in 20 mM BisTris pH 6.5, 100 mM NaCl, 2 mM DTT; MW from Guinier analysis and Porod volume; both purified
binding [1],binding [2],Binder
no binding,–,"NHLRC2 C-terminal domain (aa 587-726) (domain or fragment, UniProt Q8NBF2 587-726) KQKTLPKLPKSAPSIRLSPVTACAGQTLQFKLRLDLPSGSKLTEGVSSCWFLTAEGNEWLLQGQIAAGDIENISSQPTISLQIPDDCLSLEAIVSVSVFLYYCSADSSACMMKAILFSQPLQITDTQQGCIAPVELRYVF"
–,"no binding (tested: 1.25, 2.5, 5 mg/ml)","NHLRC2 (NHL repeat-containing protein 2), full-length (protein, UniProt Q8NBF2 1-726) MAAPGGRGRSLSGLLPAQTSLEYALLDAVTQQEKDSLVYQYLQKVDGWEQDLSVPEFPEGLEWLNTEEPISVYKDLCGKIVVLDFFTYCCINCIHLLPDLHALEHTYSDKDGLLIIGVHSAKFPNEKVLDNIKSAVLRYNITHPMVNDADASLWQELEVSCWPTLVILGPRGNMLFSLIGEGHKDKLFLYTSIALKYYKDRGQIRDNKIGIKLYKDSLPPSPLLFPGKVTVDQVTDRLVIADTGHHRILVVWKNGQIQYSIGGPNPGRKDGIFSESTFNSPQGVAIMNNIIYVADTENHLIRKIDLEAEKVSTVAGIGIQGTDKEGGAKGEQQPISSPWDVVFGTSGSEVQRGDILWIAMAGTHQIWALLLDSGKLPKKNELTKGTCLRFAGSGNEENRNNAYPHKAGFAQPSGLSLASEDPWSCLFVADSESSTVRTVSLKDGAVKHLVGGERDPMNLFAFGDVDGVGINAKLQHPLGVTWDKKRNLLYVADSYNHKIKVVDPKTKNCTTLAGTGDTNNVTSSSFTESTFNEPGGLCIGENGELLYVADTNNHQIKVMDLETKMVSVLPIFRSENAVVDGPFLVEKQKTLPKLPKSAPSIRLSPVTACAGQTLQFKLRLDLPSGSKLTEGVSSCWFLTAEGNEWLLQGQIAAGDIENISSQPTISLQIPDDCLSLEAIVSVSVFLYYCSADSSACMMKAILFSQPLQITDTQQGCIAPVELRYVF"
